# Measured data: PubChem BioAssay AID652272 (Drosophila RNAi Screening Center, 2013)
# Test: 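Genome-wide knock-down search for components of Hedgehog signalling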 (primary screen)
# Cells: Drosophila clone 8 (Cl8) cells
# Reagent: long dsRNA against Drosophila genes
# Measured: 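Plate reader light from a firefly reporter under a ptc promoter fragment that responds to Hedgehog, with Renilla light as transfection reference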
# Scale: firefly Hh reporter signal: higher = more ptc reporter light; Renilla reference signal: higher = more Renilla control light
# Call rule: 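Called a hit if the two-replicate mean z-score lies below -2 or above +3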
# Meaning of the calls: active = hit: reporter lowered or raised; inactive = not a hit
# In all, the deposit lists about 21,000 reagents; shown is an unselected part of those with a known target gene and a result. Over the whole deposit, 503 (2.4%) are marked active. 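Raw plate light values, not normalised; calls rest on replicate z-scores that were not deposited; hits include reporter decreases as well as increases.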 Reagents against one gene are numbered here. Not stated in the record: the amount of reagent, the time to read-out.
target,reagent,"firefly Hh reporter signal, replicate 1","firefly Hh reporter signal, replicate 2","firefly Hh reporter signal, replicate 3","Renilla reference signal, replicate 1","Renilla reference signal, replicate 2",call
alrm (astrocytic leucine-rich repeat molecule),1,4.95e5,61763,,26957,1170,inactive
nej (nejire),1,55385,91472,,1580,4600,inactive
nej (nejire),2,55641,44886,,1240,1216,inactive
CG15890,1,73984,1.67e5,,2675,6384,inactive
AGO1 (Argonaute-1),1,75655,52112,,2794,1764,inactive
HnRNP-K (Heterogeneous nuclear ribonucleoprotein K),1,1.63e5,7.25e5,1.45e5,8235,43514,inactive
Sh3beta,1,1.76e5,1.10e5,,5482,3585,inactive
5-HT2B (5-hydroxytryptamine (serotonin) receptor 2B),1,46969,72790,,2164,2828,inactive
5-HT2B (5-hydroxytryptamine (serotonin) receptor 2B),2,36963,1.09e5,,1412,2818,inactive
CG6553,1,99357,68171,,2664,4587,inactive
Gpdh2 (Glycerol-3-phosphate dehydrogenase 2),1,1.30e5,82736,,3338,6976,inactive
Use1 (Unconventional SNARE in the ER 1),1,64594,88588,,4176,5960,inactive
nac (neuronally altered carbohydrate),1,75348,1.16e5,,2640,3195,inactive
CG4615,1,3.86e5,1.62e5,,16704,2547,inactive
CG4615,2,55561,47072,,1832,1485,inactive
mei-41 (meiotic 41),1,37845,1.74e5,,1133,7067,inactive
GstT1 (Glutathione S transferase T1),1,1.21e5,63594,,2979,4996,inactive
fs(1)K10 (female sterile (1) K10),1,1.56e5,83299,,3782,2912,inactive
hale (hale-bopp),1,61569,99200,,2182,2832,inactive
SF2 (Splicing factor 2),1,65323,54704,,3604,2265,active
sano (serrano),1,1.13e5,76902,,4509,2945,inactive
Muc18B (Mucin 18B),1,1.21e5,3.39e5,,3505,13388,inactive
CG14107,1,32545,27353,21922,3913,2393,inactive
mRpS35 (mitochondrial ribosomal protein S35),1,52280,33136,,1522,2792,inactive

Hits, of those listed so far:
target,reagent,"firefly Hh reporter signal, replicate 1","firefly Hh reporter signal, replicate 2","firefly Hh reporter signal, replicate 3","Renilla reference signal, replicate 1","Renilla reference signal, replicate 2",call
SF2 (Splicing factor 2),1,65323,54704,,3604,2265,active

Next entries follow.
target,reagent,"firefly Hh reporter signal, replicate 1","firefly Hh reporter signal, replicate 2","firefly Hh reporter signal, replicate 3","Renilla reference signal, replicate 1","Renilla reference signal, replicate 2",call
Eig71Ea (Ecdysone-induced gene 71Ea),1,1.49e5,,,5004,4041,inactive
Mlc-c (Myosin light chain cytoplasmic),1,72976,62876,,1885,1866,inactive
CG12483,1,99888,41302,,3419,3138,inactive
ppk30 (pickpocket 30),1,75820,81386,,2688,2096,inactive
CG15445,1,53257,83145,,1493,2192,inactive
CG9396,1,57859,77962,,1888,2141,inactive
CG6885,1,73360,,,3266,1236,inactive
PolD3 (DNA polymerase delta subunit 3),1,1.23e5,76376,,5408,3543,inactive
CG6689,1,90097,78379,,3169,2471,inactive
CG4691,1,83984,56304,,3654,2530,inactive
Nmd3 (Nonsense-mediated mRNA 3),1,1.53e5,1.01e5,,3536,3515,inactive
"NKAIN (Na,K-ATPase Interacting)",1,71218,1.21e5,,2955,4313,inactive
Helz (Helicase with zinc finger),1,94700,54379,,3872,2518,inactive
CG15740,1,39255,32112,,2583,716,inactive
CG13606,1,5.69e5,1.43e5,,31275,4185,inactive
lin (lines),1,1.72e5,67941,,4560,6667,inactive
Pmm2 (Phosphomannomutase type 2),1,42662,33796,63680,3452,4582,inactive
kuk (kugelkern),1,1.45e5,1.03e5,,5956,4544,inactive
CG6414,1,71568,1.75e5,,2519,6003,inactive
dpr1 (defective proboscis extension response 1),1,97346,1.51e5,,3338,7888,inactive
dpr1 (defective proboscis extension response 1),2,1.15e5,57778,,4243,4240,inactive
Cks30A (Cyclin-dependent kinase subunit 30A),1,62380,45584,,2672,2101,inactive
PolD2 (DNA polymerase delta subunit 2),1,1.02e5,70428,,4725,3248,inactive
CG11560,1,1.43e5,85665,,5501,3946,inactive
CG31957,1,4.78e5,1.45e5,,26868,7408,inactive
CG33490,1,74327,50531,,3328,2064,inactive
CG6040,1,1.02e5,57146,,3994,2039,inactive
AdipoR (Adiponectin receptor),1,1.17e5,88117,,4633,3890,inactive
ND-B16.6 (NADH dehydrogenase (ubiquinone) B16.6 subunit),1,95229,4.18e5,,3136,12997,inactive
CG43342,1,65216,1.65e5,,13505,3623,inactive
Sox21b,1,1.05e5,2.55e5,68263,3936,17008,inactive
Sox21b,2,26848,,,3341,1157,active
CG18178,1,74027,69401,,3232,2786,inactive
